Measurements taken from the supplement of paper PMC12873370.
Where “and” joins values, the source holds several entries; their conditions need not be identical. Equal values may be shown once. Some of the results follow. Single values are uncertain, as repeats are few or missing.

These compounds were tested on MEPP (mouse ovarian epithelium Trp53/Pten KO) (assay: cell viability relative to untreated (fraction); higher = less growth inhibition). Settings: 5 µM; 3 days.

| Structure (SMILES) | cell viability |
| --- | --- |
| COc1ccc2cc1Oc1ccc(cc1)C[C@H]1c3c(cc4c(c3Oc3cc5c(cc3OC)CCN(C)[C@@H]5C2)OCO4)CCN1C | 0.788 |
| C[C@@H](O[C@H]1OCCN(Cc2nn(P(=O)(O)O)c(=O)[nH]2)[C@H]1c1ccc(F)cc1)c1cc(C(F)(F)F)cc(C(F)(F)F)c1 | 0.734 |
| CO[C@H]1/C=C/O[C@@]2(C)Oc3c(C)c(O)c4c(O)c(c5c(nc6cc(C)ccn65)c4c3C2=O)NC(=O)/C(C)=C\C=C\[C@H](C)[C@H](O)[C@@H](C)[C@@H](O)[C@@H](C)[C@H](OC(C)=O)[C@@H]1C | 1.21 |
| COc1cc(/C=C/C(=O)N2CCC=CC2=O)cc(OC)c1OC | 1.05 |
| CC(=O)NCCc1c[nH]c2ccc(O)cc12 | 1.06 |
| CCCCCCCCCCC(=O)O | 0.967 |
| Cc1cnc(C)cn1 | 1.12 |
| O=C1C=C(O)C(=O)c2ccccc21 | 0.992 |
| OC[C@H]1O[C@@H](n2cnc3c2N=CNC[C@H]3O)C[C@@H]1O | 1.09 |
| O=C(O)c1cc(O)ccc1O | 0.996 |
| CNCC(=O)O | 0.813 |
| CCCCCCCCCCC[C@@H](C[C@@H]1OC(=O)[C@H]1CCCCCC)OC(=O)[C@H](CC(C)C)NC=O | 1.15 |
| COc1cc(NS(=O)(=O)c2ccc(N)cc2)nc(OC)n1 | 1.05 |
| CC[C@H](C)[C@H](N)C(=O)O | 0.974 |
| N[C@H](CO)C(=O)O | 0.924 |
| CC[C@H](C)[C@@H]1NC(=O)[C@H](Cc2ccc(O)cc2)NC(=O)[C@@H](N)CSSC[C@@H](C(=O)N2CCC[C@H]2C(=O)N[C@@H](CC(C)C)C(=O)NCC(N)=O)NC(=O)[C@H](CC(N)=O)NC(=O)[C@H](CCC(N)=O)NC1=O | 0.827 |
| CC(=O)c1ccc(O)cc1O | 1.01 |
| CO[C@H]1/C=C\C=C(/C)C(=O)NC2=CC(=O)C(NCCN(C)C)=C(C[C@@H](C)C[C@H](OC)[C@H](O)[C@@H](C)/C=C(\C)[C@@H]1OC(N)=O)C2=O | 0.949 |
| C/C1=C\CCC2=C[C@@H](OC2=O)c2c(C)coc2C1 | 1.03 |
| CCCCCC/C=C\CCCCCCCc1cccc(O)c1C(=O)O | 1.06 |

| Structure (SMILES) | cell viability |
| --- | --- |
| C[C@H]1c2cccc(O)c2C(=O)C2=C(O)[C@]3(O)C(=O)C(C(N)=O)=C(O)[C@@H](N(C)C)[C@@H]3[C@@H](O)[C@@H]21 | 0.974 |
| CCCCCCCCCC(=O)N[C@H]1[C@H](Oc2c3cc4cc2Oc2ccc(cc2Cl)[C@@H](O[C@@H]2O[C@H](CO)[C@@H](O)[C@H](O)[C@H]2NC(C)=O)[C@@H]2NC(=O)[C@H](NC(=O)[C@@H]4NC(=O)[C@H]4NC(=O)[C@@H](Cc5ccc(c(Cl)c5)O3)NC(=O)[C@H](N)c3ccc(O)c(c3)Oc3cc(O)cc4c3)c3ccc(O)c(c3)-c3c(OC4O[C@H](CO)[C@@H](O)[C@H](O)[C@@H]4O)cc(O)cc3[C@@H](C(=O)O)NC2=O)O[C@H](CO)[C@@H](O)[C@@H]1O (stereo not given in full) | 1.01 |
| NC[C@H]1O[C@H](O[C@H]2[C@H](O)[C@@H](O[C@H]3O[C@H](CO)[C@@H](O)[C@H](N)[C@H]3O)[C@H](N)C[C@@H]2N)[C@H](N)C[C@@H]1O | 1.11 and 0.818 |
| COc1cc(CC(=O)O)ccc1O | 1.46 |
| CCCCCCCCCCCCCCCC(=O)NCCO | 0.821 |
| COc1cc2c(cc1OC)-c1cc3ccc4c(c3c[n+]1CC2)OCO4 | 0.997 |
| N[C@@H](CO)C(=O)O | 0.962 |
| C=C1C(=O)O[C@@H]2/C=C(\C)CC/C=C(\C)CC[C@@H]12 | 1.24 |
| O=C(O)c1ccccc1O | 1.01 |
| O=C1c2ccccc2C(=O)c2c(O)c(O)cc(O)c21 | 1.28 |
| COc1cc2ncnc(Nc3ccc(F)c(Cl)c3)c2cc1OCCCN1CCOCC1 | 1.02 |
| Oc1ccc2ccccc2c1 | 1.58 |
| CC[C@H](C)C(=O)O[C@H]1C[C@H](O)C=C2C=C[C@H](C)[C@H](CC[C@@H](O)C[C@@H](O)CC(=O)O)[C@H]21 | 0.981 and 1.02 |
| Cc1ncc(CO)c(CO)c1O | 0.936 and 0.86 |
| O=c1c(-c2ccc(O)cc2)coc2c([C@@H]3O[C@H](CO)[C@@H](O)[C@H](O)[C@H]3O)c(O)ccc12 | 1.3 |
| CC(C)C[C@H](NC(=O)[C@H]1O[C@@H]1C(=O)O)C(=O)NCCCCN=C(N)N | 1.12 |
| COC(=O)C1=CO[C@@H](O)[C@@H]2C(CO)=CC[C@H]12 | 0.982 |
| CN1[C@@H](CC(=O)c2ccccc2)CCC[C@H]1C[C@H](O)c1ccccc1 | 1.03 |
| C[C@]12C[C@H](O)[C@H]3[C@@H](CCC4=CC(=O)CC[C@@]43C)[C@@H]1CC[C@@H]2C(=O)CO | 0.986 |
| COc1cccc2c1C(=O)c1c(O)c3c(c(O)c1C2=O)C[C@@](O)(C(=O)CO)C[C@@H]3O[C@H]1C[C@H](N)[C@@H](O)[C@H](C)O1 | 0.674 |

Copied from the list:
cell viability, C[C@]12C[C@H](O)[C@H]3[C@@H](CCC4=CC(=O)CC[C@@]43C)[C@@H]1CC[C@@H]2C(=O)CO reads 0.986
cell viability, CCCCCCCCCCC[C@@H](C[C@@H]1OC(=O)[C@H]1CCCCCC)OC(=O)[C@H](CC(C)C)NC=O reads 1.15
